# According to patent US12252712B2, “Use of engineered liver tissue constructs for modeling liver disorders” (Organovo, Inc., priority 2017, dated 2025):
# At least one structure is not confirmed: it was looked up by name or label, or the drawing left a doubt.
# Tested on: bioprinted liver tissue constructs exhibiting a NASH phenotype
# Test: Drug efficacy in NASH-induced bioprinted liver tissue constructs (Trichrome, αSMA staining)
# Type: cell-based, human
# [1] = NASH-induced (12.5 mM fructose and 500 uM PA), co-administration of OCA
structure (smiles),measurement,setting,value
"CC[C@H]1[C@@H](O)[C@@H]2[C@H](CC[C@]3(C)[C@@H]([C@H](C)CCC(=O)O)CC[C@@H]23)[C@@]2(C)CC[C@@H](O)C[C@@H]12 [OCA, Obeticholic Acid]",steatosis and fibrosis (Trichrome; TCM),[1],reduction in steatosis and fibrosis
same,stellate cell activation (alpha-smooth muscle actin; αSMA),[1],reduction stellate cell activation
same,protection against disease progression,co-administration of OCA with NASH induction,protection against disease progression was achieved
